According to patent publication US20200317791A1:
These are yes or no findings as the source states them, for the method shown. For some of these results: Binding can be weak; no strength is given.

Legend:
B37,Bw4_B*37:01 (human) = assay: LABScreen beads
B13,Bw4_B*13:02 (human) = assay: LABScreen beads
B82,Bw6_B*82:01 (human) = assay: LABScreen beads
B35,Bw6_B*35:01 (human) = assay: LABScreen beads
[1] = biological target: B7,Bw6_B*07:02 (human), B*07:0; assay: LABScreen beads
B59,Bw4_B*59:01 (human) = assay: LABScreen beads
B18,Bw6_B*18:01 (human) = assay: LABScreen beads
B8,Bw6_B*08:01 (human) = assay: LABScreen beads
B55,Bw6_B*55:01 (human) = assay: LABScreen beads
B61,Bw6_B*40:06 (human) = assay: LABScreen beads
B13,Bw4_B*13:01 (human) = assay: LABScreen beads
B57,Bw4_B*57:03 (human) = assay: LABScreen beads
B48,Bw6_B*48:01 (human) = assay: LABScreen beads
B51,Bw4_B*51:02 (human) = assay: LABScreen beads
B62,Bw6_B*15:01 (human) = assay: LABScreen beads
B75,Bw6_B*15:11 (human) = assay: LABScreen beads
B61,Bw6_B*40:02 (human) = assay: LABScreen beads
B75,Bw6_B*15:02 (human) = assay: LABScreen beads
B78,Bw6_B*78:01 (human) = assay: LABScreen beads
B41,Bw6_B*41:01 (human) = assay: LABScreen beads
B45,Bw6_B*45:01 (human) = assay: LABScreen beads
B42,Bw6_B*42:01 (human) = assay: LABScreen beads
B44,Bw4_B*44:03 (human) = assay: LABScreen beads
B54,Bw6_B*54:01 (human) = assay: LABScreen beads
B63,Bw4_B*15:16 (human) = assay: LABScreen beads
B47,Bw4_B*47:01 (human) = assay: LABScreen beads
B71,Bw6_B*15:10 (human) = assay: LABScreen beads
B57,Bw4_B*57:01 (human) = assay: LABScreen beads
B56,Bw6_B*56:01 (human) = assay: LABScreen beads
B77,Bw4_B*15:13 (human) = assay: LABScreen beads
B44,Bw4_B*44:02 (human) = assay: LABScreen beads
B60,Bw6_B*40:01 (human) = assay: LABScreen beads
B53,Bw4_B*53:01 (human) = assay: LABScreen beads
B49,Bw4_B*49:01 (human) = assay: LABScreen beads
[2] = biological target: B27,Bw4_B*27:05 (human), B*27:0; assay: LABScreen beads
B76,Bw6_B*15:12 (human) = assay: LABScreen beads
B27,Bw6_B*27:08 (human) = assay: LABScreen beads
B58,Bw4_B*58:01 (human) = assay: LABScreen beads
B67,Bw6_B*67:01 (human) = assay: LABScreen beads
B64,Bw6_B*14:01 (human) = assay: LABScreen beads
B81,Bw6_B*81:01 (human) = assay: LABScreen beads
B72,Bw6_B*15:03 (human) = assay: LABScreen beads
B39,Bw6_B*39:01 (human) = assay: LABScreen beads
B52,Bw4_B*52:01 (human) = assay: LABScreen beads
B38,Bw4_B*38:01 (human) = assay: LABScreen beads
B50,Bw6_B*50:01 (human) = assay: LABScreen beads
B51,Bw4_B*51:01 (human) = assay: LABScreen beads
B65,Bw6_B*14:02 (human) = assay: LABScreen beads
Cw18_C*18:02 (human) = assay: LABScreen beads, 10 µg/ml antibody
Cw4_C*04:01 (human) = assay: LABScreen beads, 10 µg/ml antibody
Cw17_C*17:01 (human) = assay: LABScreen beads, 10 µg/ml antibody
Cw9_C*03:03 (human) = assay: LABScreen beads, 10 µg/ml antibody
Cw16_C*16:01 (human) = assay: LABScreen beads, 10 µg/ml antibody
Cw15_C*15:02 (human) = assay: LABScreen beads, 10 µg/ml antibody
[3] = biological target: Cw7_C*07:02 (human), C*07:0; assay: LABScreen beads, 10 µg/ml antibody
Cw1_C*01:02 (human) = assay: LABScreen beads, 10 µg/ml antibody
Cw14_C*14:02 (human) = assay: LABScreen beads, 10 µg/ml antibody
Cw5_C*05:01 (human) = assay: LABScreen beads, 10 µg/ml antibody
Cw10_C*03:04 (human) = assay: LABScreen beads, 10 µg/ml antibody
[4] = biological target: Cw6_C*06:02 (human), C*06:0; assay: LABScreen beads, 10 µg/ml antibody
Cw12_C*12:03 (human) = assay: LABScreen beads, 10 µg/ml antibody
Cw8_C*08:01 (human) = assay: LABScreen beads, 10 µg/ml antibody
Cw10_C*03:02 (human) = assay: LABScreen beads, 10 µg/ml antibody
Cw2_C*02:02 (human) = assay: LABScreen beads, 10 µg/ml antibody

B1: CW6B175 (antibody, V domains shown)
VH: EVQLVESGGGLVQPGGSLRLSCAASGFTFTNYWMTWVRQAPGKGLEWVANIKQSGSEKYYVDSVKGRFTISRDNAKNSLYLQMNSLRAEDTAVYYCARTLYEWELEPFDYWGQGTLVTVSS
VL: SYVLTQPPSVSVAPGQTARITCGGNRIGSKSVHWYQQKPGQAPVLVVFDDSDRPSGIPERFSGSNSGITATLTISRVEAGDEADYYCQVWDSSNDHVVFGGGTKLTVL
- binding (B37,Bw4_B*37:01 (human)): no binding (tested: 10 µg/ml)
- binding (B13,Bw4_B*13:02 (human)): no binding (tested: 10 µg/ml)
- binding (B82,Bw6_B*82:01 (human)): no binding (tested: 10 µg/ml)
- binding (B35,Bw6_B*35:01 (human)): no binding (tested: 10 µg/ml)
- binding [1]: no binding (tested: 10 µg/ml)
- binding (B59,Bw4_B*59:01 (human)): no binding (tested: 10 µg/ml)
- binding (B18,Bw6_B*18:01 (human)): no binding (tested: 10 µg/ml)
- binding (B8,Bw6_B*08:01 (human)): no binding (tested: 10 µg/ml)
- binding (B55,Bw6_B*55:01 (human)): no binding (tested: 10 µg/ml)
- binding (B61,Bw6_B*40:06 (human)): no binding (tested: 10 µg/ml)
- binding (B13,Bw4_B*13:01 (human)): no binding (tested: 10 µg/ml)
- binding (B57,Bw4_B*57:03 (human)): no binding (tested: 10 µg/ml)
- binding (B48,Bw6_B*48:01 (human)): no binding (tested: 10 µg/ml)
- binding (B51,Bw4_B*51:02 (human)): no binding (tested: 10 µg/ml)
- binding (B62,Bw6_B*15:01 (human)): no binding (tested: 10 µg/ml)
- binding (B75,Bw6_B*15:11 (human)): no binding (tested: 10 µg/ml)
- binding (B61,Bw6_B*40:02 (human)): no binding (tested: 10 µg/ml)
- binding (B75,Bw6_B*15:02 (human)): no binding (tested: 10 µg/ml)
- binding (B78,Bw6_B*78:01 (human)): no binding (tested: 10 µg/ml)
- binding (B41,Bw6_B*41:01 (human)): no binding (tested: 10 µg/ml)
- binding (B45,Bw6_B*45:01 (human)): no binding (tested: 10 µg/ml)
- binding (B42,Bw6_B*42:01 (human)): no binding (tested: 10 µg/ml)
- binding (B44,Bw4_B*44:03 (human)): no binding (tested: 10 µg/ml)
- binding (B54,Bw6_B*54:01 (human)): no binding (tested: 10 µg/ml)
- binding (B63,Bw4_B*15:16 (human)): no binding (tested: 10 µg/ml)
- binding (B47,Bw4_B*47:01 (human)): no binding (tested: 10 µg/ml)
- binding (B71,Bw6_B*15:10 (human)): no binding (tested: 10 µg/ml)
- binding (B57,Bw4_B*57:01 (human)): no binding (tested: 10 µg/ml)
- binding (B56,Bw6_B*56:01 (human)): no binding (tested: 10 µg/ml)
- binding (B77,Bw4_B*15:13 (human)): no binding (tested: 10 µg/ml)
- binding (B44,Bw4_B*44:02 (human)): no binding (tested: 10 µg/ml)
- binding (B60,Bw6_B*40:01 (human)): no binding (tested: 10 µg/ml)
- binding (B53,Bw4_B*53:01 (human)): no binding (tested: 10 µg/ml)
- binding (B49,Bw4_B*49:01 (human)): no binding (tested: 10 µg/ml)
- binding [2]: no binding (tested: 10 µg/ml)
- binding (B76,Bw6_B*15:12 (human)): no binding (tested: 10 µg/ml)
- binding (B27,Bw6_B*27:08 (human)): no binding (tested: 10 µg/ml)
- binding (B58,Bw4_B*58:01 (human)): no binding (tested: 10 µg/ml)
- binding (B67,Bw6_B*67:01 (human)): no binding (tested: 10 µg/ml)
- binding (B64,Bw6_B*14:01 (human)): no binding (tested: 10 µg/ml)
- binding (B81,Bw6_B*81:01 (human)): no binding (tested: 10 µg/ml)
- binding (B72,Bw6_B*15:03 (human)): no binding (tested: 10 µg/ml)
- binding (B39,Bw6_B*39:01 (human)): no binding (tested: 10 µg/ml)
- binding (B52,Bw4_B*52:01 (human)): no binding (tested: 10 µg/ml)
- binding (B38,Bw4_B*38:01 (human)): no binding (tested: 10 µg/ml)
- binding (B50,Bw6_B*50:01 (human)): no binding (tested: 10 µg/ml)
- binding (B51,Bw4_B*51:01 (human)): no binding (tested: 10 µg/ml)
- binding (B65,Bw6_B*14:02 (human)): no binding (tested: 10 µg/ml)
- binding (Cw18_C*18:02 (human)): binds
- binding (Cw4_C*04:01 (human)): binds
- binding (Cw17_C*17:01 (human)): binds
- binding (Cw9_C*03:03 (human)): binds
- binding (Cw16_C*16:01 (human)): binds
- binding (Cw15_C*15:02 (human)): binds
- binding [3]: binds
- binding (Cw1_C*01:02 (human)): binds
- binding (Cw14_C*14:02 (human)): binds
- binding (Cw5_C*05:01 (human)): binds
- binding (Cw10_C*03:04 (human)): binds
- binding [4]: binds
- binding (Cw12_C*12:03 (human)): binds
- binding (Cw8_C*08:01 (human)): binds
- binding (Cw10_C*03:02 (human)): binds
- binding (Cw2_C*02:02 (human)): binds
